Reference: PubChem BioAssay AID540275 (National Center for Advancing Translational Sciences (NCATS), 2011)
The campaign covered roughly 320,000 compounds. About 620 (0.19%) were called active. The inconclusive results got no clear call from the source; some entries with a clear call stand among them for comparison. No stated cut-off is given here; in the data, active means activation above about 80%; inconclusive means between about 30% and that limit; inactive means weaker than that.

Protein sequences, listed by entry. Tags and fused reporters are not part of them.
UniProt Q8NER1, whole entry, looked up: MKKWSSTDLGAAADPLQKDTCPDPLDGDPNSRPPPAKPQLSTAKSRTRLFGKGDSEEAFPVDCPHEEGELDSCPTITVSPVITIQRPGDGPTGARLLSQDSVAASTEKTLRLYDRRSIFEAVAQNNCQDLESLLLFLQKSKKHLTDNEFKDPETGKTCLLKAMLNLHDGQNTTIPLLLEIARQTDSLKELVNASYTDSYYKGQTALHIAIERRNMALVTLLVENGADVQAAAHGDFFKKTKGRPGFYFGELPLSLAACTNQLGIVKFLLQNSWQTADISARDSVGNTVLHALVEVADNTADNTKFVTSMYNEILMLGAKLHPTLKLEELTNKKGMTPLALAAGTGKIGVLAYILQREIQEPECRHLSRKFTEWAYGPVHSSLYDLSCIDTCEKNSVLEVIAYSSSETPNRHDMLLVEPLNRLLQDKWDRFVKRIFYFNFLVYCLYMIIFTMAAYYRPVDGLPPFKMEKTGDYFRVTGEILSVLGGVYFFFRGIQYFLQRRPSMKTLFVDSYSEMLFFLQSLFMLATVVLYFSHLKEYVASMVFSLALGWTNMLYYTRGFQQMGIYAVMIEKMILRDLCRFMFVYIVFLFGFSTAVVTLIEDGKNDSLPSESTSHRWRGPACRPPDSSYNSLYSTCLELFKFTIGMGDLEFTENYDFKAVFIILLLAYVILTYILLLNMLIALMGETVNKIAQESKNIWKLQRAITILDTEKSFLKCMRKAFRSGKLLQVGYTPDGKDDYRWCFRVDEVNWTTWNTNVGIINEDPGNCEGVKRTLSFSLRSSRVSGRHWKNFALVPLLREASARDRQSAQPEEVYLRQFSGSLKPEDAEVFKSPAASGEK

Target: Transient receptor potential cation channel subfamily V member 1 (Homo sapiens) (UniProt Q8NER1)
Assay: HTS Assay for Compounds that Act as Agonists of the Vanilloid Receptor 1; further: 0% is about no effect
Conditions: TRPV1-expressing cells, Fluo-8 calcium influx, agonist mode; at 8.33 µM, hits give high values
Procedure, shortened: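 TRPV1-expressing cells were cultured overnight at 35.5C and loaded with Fluo-8 calcium dye for 40 to 90 min at room temperature. After a 10 s baseline, compound was added and calcium influx was read kinetically for 3 min (ex 480/em 520 nm).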

SMILES | activation
COc1cccc(NC(=O)Cn2c(-c3cncs3)nc3ccccc32)c1 | inactive: -0.14%
O=C(Oc1cccc(Nc2ncnc3ccccc23)c1)c1ccccc1Cl | inconclusive: 33.7%
Cc1cccc(NC(=O)c2cc(C)nc3ccccc23)c1 | inactive: 13.5%
Cc1cccc(Cn2c(C(C)O)nc3ccccc32)c1 (stereo not given) | inconclusive: 40.7%
O=C(N/N=C/c1cn(-c2ccccc2)nc1-c1cc2ccccc2o1)c1ccncc1 | inconclusive: 63.8%
O=C(NNC1=C(C(=O)C(F)(F)F)CCC1)c1ccncc1 | inconclusive: 30.1%
COc1c(C)cccc1C(=O)NC(=S)Nc1cccc2nsnc12 | inactive: -1.09%
CCCOc1cccc(NC(=O)OC2CCN(C)CC2)c1 | inactive: 5.18%
CN(C)c1ccc(/C=c2\sc3n(c2=O)CCCN=3)cc1 | inactive: 10.9%
CSc1cc(CS(=O)(=O)c2ccccc2)nc(-c2ccccc2)n1 | inconclusive: 41.2%
O=C(Nc1nc2c(s1)C(=O)CCC2)c1ccccc1 | inconclusive: 43.1%
CC(=O)N1CC(C)Sc2ccc(S(=O)(=O)NC(C)c3ccccc3)cc21 (stereo not given) | inconclusive: 32.9%
C=CCSc1nnc2c(n1)OC(C)=Nc1ccc(Br)cc1-2 | inactive: -4.31%
Cc1ccc(NC(=O)CSCc2ccc(F)cc2)cc1 | inconclusive: 57.2%
CCn1cc(CNC(=O)c2ccc3nc(Cc4ccc(OC)cc4)oc3c2)cn1 | inactive: 21.2%
CC(C)(C)OC(=O)NCCCC[C@H](NC(=O)c1[nH]cnc1C(=O)Nc1ccccc1)C(=O)OC(C)(C)C | inconclusive: 35.8%
Cc1csc2nc(CNS(=O)(=O)N(C)C)cn12 | inactive: 2.88%
O=C(CSc1nc2ccccc2c(=O)n1CC1CCCO1)Nc1ccccc1 (stereo not given) | inconclusive: 30.4%
COc1ccc(CC(=O)NCC2CCCN(Cc3ccccc3Cl)C2)cc1 (stereo not given) | inconclusive: 40.7%
CC(=O)NCCn1c(SCC(=O)NC2CCCCC2)nc2ccccc2c1=O | inactive: 2%
N#C/C(=C/c1cn(-c2ccccc2)nc1-c1cccc(OCc2ccccc2)c1)C(=O)NCCCn1ccnc1 | inconclusive: 54.7%
Cc1noc(-c2ccccc2)c1NC(=O)Nc1ccc(Cl)cc1 | inconclusive: 43.3%
Cc1ccc(NS(=O)(=O)c2ccc(C(=O)N3CC(C)CC(C)C3)cc2)cc1 (stereo not given) | inconclusive: 33.4%

Retrieved by structure from the entries so far:
SMILES | activation
O=C(Oc1cccc(Nc2ncnc3ccccc23)c1)c1ccccc1Cl | inconclusive: 33.7%
CC(=O)N1CC(C)Sc2ccc(S(=O)(=O)NC(C)c3ccccc3)cc21 (stereo not given) | inconclusive: 32.9%
Cc1csc2nc(CNS(=O)(=O)N(C)C)cn12 | inactive: 2.88%

(next part)

SMILES | activation
COc1ccccc1OC[C@H](O)CO | inactive: 1.07%
O=C(COc1ccc(/C=N/NS(=O)(=O)c2ccccc2)cc1)N1CCOCC1 | inactive: -4.34%
CC(C)S(=O)(=O)c1csc(C(=O)Nc2ccc(F)cc2)c1N | inconclusive: 50.6%
Cc1nc2oc3ccc(F)cc3c(=O)c2cc1C(=O)NC(C)(C)C | inconclusive: 48.5%
Cc1nc2scc(C)n2c(=O)c1S(=O)(=O)Nc1ccc(OC(F)(F)F)cc1 | inconclusive: 38.7%
CCN(CC)C(=O)OCc1c(-c2cccc(OC)c2)ncc2ccccc12 | inconclusive: 32.9%
CC(NC(=O)Nc1ccc([N+](=O)[O-])cc1)C(c1cccs1)N1CCCC1 (stereo not given) | inactive: 26.1%
Cn1c(=O)c2c(nc(N/N=C/c3ccc(OC(=O)c4ccco4)cc3)n2Cc2ccccc2Cl)n(C)c1=O | inactive: 0.745%
O=C(NCc1ccc2c(c1)OCO2)c1ccc2snnc2c1 | inconclusive: 48.3%
CC(NC(=O)Nc1cccc(Cl)c1)C(c1cccs1)N1CCCC1 (stereo not given) | inactive: 25.8%
CC1CC(C)CN(CC(=O)NC(c2ccccc2)c2ccccc2)C1 (stereo not given) | inconclusive: 41.2%
COc1ccc(C2C(C(=O)c3cccs3)=C(O)C(=O)N2c2nnc(C)s2)cc1OC (stereo not given) | inactive: 28%
O=C(COc1ccc(C(=O)c2ccc(F)cc2)cc1)NCc1ccc(F)cc1 | inconclusive: 63.9%
O=C(NNC(=O)c1ccc(Cl)cc1Cl)Nc1ccccc1 | inactive: 1.18%
O=C(OC(C(=O)NCc1cccs1)c1ccccc1Cl)c1ccco1 (stereo not given) | inactive: 3.55%
O=C1NC[C@H](c2ccccc2)N(CCc2cc(C(F)(F)F)cc(C(F)(F)F)c2)C1=O | inactive: 0.139%
O=C(NNC(=S)Nc1ccccc1Cl)c1ccccc1Cl | inactive: 1.75%
CC(C)CN1CCC(=O)N([C@H](CSc2ccc(Br)cc2)Cc2ccccc2)CC1 | inactive: 25.1%
N#CC(c1ccccc1O)N1N=C(c2ccccc2)CC1c1ccccc1 (stereo not given) | inconclusive: 34.6%
Oc1ccccc1C1CCCCC1c1ccccc1 (stereo not given) | inconclusive: 65.6%
COC(=O)c1sccc1-c1ccc(C(=O)Nc2cccnc2)o1 | inconclusive: 59.7%
Cc1ccc(/C=N/n2c(COc3ccccc3)n[nH]c2=S)s1 | inconclusive: 61.1%
CCOc1ccc(NC(=O)Nc2cnccn2)cc1 | inconclusive: 47%

SMILES | activation
OC(CNCc1ccccc1)Cn1ccc2ccccc21 (stereo not given) | inactive: 1.07%
S=c1[nH]ccn1Cc1ccccc1 | inactive: -6.07%
Cc1cccc(OCCCC(=O)Nc2ccc(S(N)(=O)=O)cc2)c1 | inconclusive: 46.7%
COCCNC(=O)CNC(=O)c1nn(-c2ccc(OC)c(Cl)c2)c(=O)c2ccccc12 | inactive: -4.78%
O=C(Nc1ccc(Cl)cc1)NC1CCCCC1Cc1ccco1 (stereo not given) | inconclusive: 57.8%
C/C(=N\NC(=O)c1ccccc1O)c1cccc(NC(=O)c2ccccc2)c1 | inconclusive: 31.4%
COc1ccc(/C=C2\Cc3ccccc3C2=O)cc1OC | inconclusive: 56.7%
O=C(CCSCc1ccccc1F)NCCc1ccccc1 | inconclusive: 35.1%
CCN(CC)S(=O)(=O)c1ccc2oc(C(=O)N3CCCCCC3)c(C)c2c1 | inconclusive: 39.7%
COc1ccc(-c2nc(-c3cccs3)no2)cc1 | inconclusive: 44.3%
CCCc1nc(NC(=O)c2ccccc2)nc(NC(=O)c2ccccc2)n1 | inconclusive: 76.4%
Cc1ccc2c(CN(C)Cc3ccccc3)cc(=O)oc2c1C | inconclusive: 44.2%
c1ccc2c(c1)oc1c(Nc3ccc4c(c3)OCCO4)ncnc12 | active: 82.9%
O=C(COC(=O)c1ccccc1O)NCCC1=CCCCC1 | inconclusive: 32.4%
O=C1CC(N(CCc2ccccc2)C(=S)Nc2ccccc2)C(=O)N1c1ccccc1 (stereo not given) | inconclusive: 43.5%
CC(C)c1ccc(NC(=S)N2CCCC2)cc1 | inconclusive: 63.1%
COc1ccc(OC)c(NC(=O)CN2C(=O)C3(OCCCO3)c3ccccc32)c1 | inconclusive: 73.6%
Cc1cccc(C)c1OCc1nnc(SCC(=O)Nc2ccc(N3CCOCC3)cc2)o1 | inactive: 3.1%
COc1ccc(C(=O)CN2C(=O)c3ccccc3C2=O)c(OC)c1C | inconclusive: 45.9%
CCCn1cnc2c(sc3nc4c(cc32)CSC(C)(C)C4)c1=O | inconclusive: 40.6%
O=C(Nc1ccc2c(c1)OCO2)C1CC(=O)N(CCc2ccccc2)C1 (stereo not given) | inconclusive: 79%
CCN(CC)CCCNC(=O)c1cn(CC(C)C)c(=O)c2c1c1ccccc1n2C | inactive: 1.03%
COc1ccc([C@H]2CC(=O)C=C(c3ccc(Cl)c(C(F)(F)F)c3)C2)cc1 | inconclusive: 52.6%

Structures above containing a tert-butyl group (two):
SMILES | activation
CC(C)(C)OC(=O)NCCCC[C@H](NC(=O)c1[nH]cnc1C(=O)Nc1ccccc1)C(=O)OC(C)(C)C | inconclusive: 35.8%
Cc1nc2oc3ccc(F)cc3c(=O)c2cc1C(=O)NC(C)(C)C | inconclusive: 48.5%

(next part)

SMILES | activation
Cc1nn(Cc2ccc(Cl)cc2)c(C)c1NC(=O)CCCn1nc(C)c([N+](=O)[O-])c1C | active: 93.3%
CC(=O)c1ccc(NC(=O)CCOc2cc(C)ccc2C)cc1 | inconclusive: 41.6%
S=c1[nH]nc(-c2ccc(Br)o2)n1Cc1ccccc1 | inactive: 1.21%
COC(CNC(=O)c1ccc2c(c1)nc(C)n2-c1cccc(C)c1)OC | inactive: 1.68%
Cc1ccnc(NC(=O)c2ccc3c(c2)OCO3)c1 | inconclusive: 32.9%
CC1=C(C(=O)Nc2ccccc2C(=O)NC2CCCCC2C)SCCO1 (stereo not given) | inconclusive: 59.3%
O=C(Nc1ccc([N+](=O)[O-])cc1)N1CCCCCC1 | inactive: 19.4%
Cc1ccc(CN2CC(C(=O)N3CC=C(c4ccccc4)CC3)CC2=O)cc1 (stereo not given) | inconclusive: 34.4%
CCn1nc(NC(=O)c2ccco2)c2cc3ccc(C)cc3nc21 | inconclusive: 51.7%
CC(=O)c1cccc(NC(=O)Nc2ccc3c(c2)CCC3)c1 | inconclusive: 65.2%
O=C1CC2(CCN(C(=O)COc3ccccc3F)CC2)Oc2ccccc21 | inconclusive: 37.4%
O=C1C=C(c2ccc(F)cc2OCc2ccccc2)C[C@@H](c2ccc(Cl)cc2)C1 | inconclusive: 31.6%
COc1cc2[nH]c(C(=O)NCc3ccccc3)cc2c(OC)c1OC | inconclusive: 31.2%
COc1ccc(-c2cc(C(=O)OCC(=O)N(C)C)c3ccccc3n2)cc1 | inconclusive: 51.2%
O=C(/C=C/c1ccccc1)c1ccccn1 | inconclusive: 31.4%
O=C(Nc1ncccc1Cl)C(Sc1ccccc1)c1ccccc1 (stereo not given) | inconclusive: 32.1%
O=C(Nc1ncc2c(n1)CC(c1ccc(Cl)cc1)CC2=O)c1ccco1 (stereo not given) | inconclusive: 42.5%
COc1cccc(CN(C)C(=O)c2ccc(C)c(S(=O)(=O)N3CCCCC3)c2)c1 | inactive: 11.6%
COc1cccc(NC(=O)CNc2cc(S(=O)(=O)N3CCOCC3)ccc2N2CCCC2)c1 | inconclusive: 67.2%
CC(=O)Oc1c(C)cc(Cl)cc1C(=O)Nc1ccc([N+](=O)[O-])cc1Cl | inactive: 14.8%
C#CCOCCOCCOCCNc1nc(N2CCN(C(=O)CCCCCCCCCCNC(=O)[C@H](CCCCN)n3cc(CCCC(=O)O)nn3)CC2)nc(N2CCN(C(=O)CCCCCCCCCCNC(=O)[C@@H]([C@H](C)O)n3cc(C)nn3)CC2)n1 | inactive: 0.008%
